# Primary screen of a compound library

The values are deposited in ChEMBL (CHEMBL3988442, “University of Dundee, Small-Polar-MMV Screening Library” (2021)).

Values are the deposited “Percent Effect”, in %. The record does not define 0% and 100%; most values in the screen are far below 50% and negative numbers occur (in some assays of this library far below -100). This is an unselected part of the compounds tested.

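Whole-parasite assay of Trypanosoma brucei over 72 hours; the read-out is not stated. Concentration: 30 µM. The record gives no direction; compounds that gave an IC50 in retests scored well above the rest, so higher reads as stronger inhibition. Values scatter widely below zero; nearly all retest evidence comes from the higher of the two concentrations used. Size under these conditions: about 64,000 compounds, about 940 of them at 50% or above in at least one test.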

structure | effect
CCN1CCC(CC(=O)NCc2cc(C)nn2C)CC1 | -52.77
Cc1cccc(OCC(=O)N2CCN(C3CCOC3=O)CC2)c1C (stereo not shown) | -25.86
CC(C)CCN1CC2(CCN(C3CCCOC3)CC2)OC1=O (stereo not shown) | -20.56
O=C(Nc1ccc(CCN2CCC(O)CC2)cc1)Nc1cccnc1 | -9.675
CCNC(=O)NC(=O)CN1CCOC(c2cccc(Br)c2)C1 (stereo not shown) | -53.15
Cn1ccc(CN2CCC3(CC2)CC(Nc2ccccn2)CO3)n1.O=C(O)C(F)(F)F (stereo not shown) | -38.36
Cl.NC(=O)COc1ccc(CNCc2ccc(F)c(F)c2)cc1 | 22.67
CCn1ccnc1CN1C[C@@H](NC(=O)C2CC2)[C@H](c2ccc(C)cc2)C1 | -16.77
Cc1ccccc1C(O)CNS(=O)(=O)Cc1cccc(C#N)c1 (stereo not shown) | 7.529
Cc1nc(CNc2nc3c(s2)c(C)nn3C)cs1 | -220.3
O=C(c1ccc2c(c1)CCC2)N1CCn2ncnc2C1 | 4.661
Cl.c1cnc2c(c1)cc(C1CCOCC1)n2CCN1CCOCC1 | 3.621
CC(C)Cc1cc(NC(=O)c2cc(Cl)c[nH]2)n(C)n1 | 0.9056
Cc1cccc(Oc2ccccc2CNC(=O)C2CCC(=O)NC2)c1 (stereo not shown) | -0.4714
Cc1nc(CCC(=O)N2Cc3cnc(-c4ccccc4)nc3C2)n[nH]1 | -1.312
CCCN1CCC(CC(=O)NCc2cc(C)nn2C)CC1 | -63.79
CN(Cc1ccccc1CN1CCCC1)C(=O)c1c(O)cccc1O | -35.58
CCn1cnnc1Cn1cccc(C(F)(F)F)c1=O | -8.91
O=c1c2cnc(N3CCCCC3)nc2ccn1Cc1ccco1 | -26.07
COCCN1CCN(CCCc2nnnn2-c2ccccc2)CC1 | -13.39
CC(=O)N1CCC(c2nc3ccc(-c4cccc(F)c4)cn3n2)CC1 | 7.966
Cc1cc(N2CCC(N(C)C(=O)c3cccs3)CC2)nc(C)n1 | -4.207
CCc1noc(CN(C)Cc2cc(Br)ccc2OC)n1 | -7.075
CN(C)c1ncccc1N(C)C(=O)Cn1cc(-c2ccccc2)nn1 | -35.56
Cc1nc(N2CCC(C(O)c3nccn3C)CC2)c2c(C)noc2n1 (stereo not shown) | -55.89
CC(C)n1ccnc1CN1CCCN(C(=O)c2cnc[nH]2)CC1 | -2.216
Cc1nn(C)c(N(C)C)c1CNCc1cccc(Cn2cccn2)c1 | -56.31
Cc1ccc(-c2noc([C@@H]3Cc4nc[nH]c4CN3)n2)cc1 | 9.565
Cc1cc(C)cc(C(=O)NCCCC2(C3OCCO3)CCOCC2)c1 | -12.07
CCN1CCCC1CNC(=O)c1cc(COc2ccccc2F)[nH]n1 (stereo not shown) | -60.25
Cc1noc(C2(NC(=O)c3cccnc3O)CCCCC2)n1 | -10.37
COc1nn(C)c2c1CCCN(C(=O)c1ccc(C)c(F)c1)C2 | -41.66
O=c1[nH]c(COc2ccc(Cl)cc2)nc2c1CCNC2 | -19
COc1cccc(-c2cnc(CNC(C)(C)c3nc(C)cs3)o2)c1 | -14.78
COc1ccc(NC(=O)CSc2nncn2-n2cccc2)c(OC)c1 | -51.31
Cc1nn(CCC#N)c(C)c1[C@@H]1C=C[C@@H](NCc2cccc(Cl)c2)C1 | -9.434
CCn1nc(C)c(C(=O)N2CCC(Nc3ccc(C)nn3)CC2)c1C | -19.81
CS(=O)(=O)NCCNC(=O)NC1(c2ccc(F)cc2)CCCC1 | -12.51
CN(CC1(CO)CCCC1)C(=O)c1cc(COc2ccccc2F)[nH]n1 | -26.33
CCN(CC)C(=O)c1cc(-c2cccc(Cl)c2)no1 | -25.52
c1coc(CNc2nnc(Cc3ccsc3)o2)c1 | -24.75
[H][C@@]12CN(Cc3ccc(CCC)o3)C[C@]1(C(=O)O)CN(CC1CC1)C2=O | -10.46
COCCN1CCN(Cc2c(C)noc2C)Cc2cccnc21.O=C(O)C(F)(F)F.O=C(O)C(F)(F)F | -21.68
COc1ccnc(NC(=O)c2ccsc2)c1 | 14.39
Cc1nccnc1N1CCC(Cc2ccccc2Cl)(C(=O)O)CC1 | -32.94
O=C1NCC2(CCCN(C(=O)c3ccc4c(c3)CCO4)C2)O1 (stereo not shown) | -6.35
CCCn1cnc2c1CN(C(=O)c1ccc(F)cc1)[C@H](C(=O)OC)C2 | 5.341

Some entries from above, unchanged:

Result for O=C(c1ccc2c(c1)CCC2)N1CCn2ncnc2C1 was 4.661%.
Result for O=c1[nH]c(COc2ccc(Cl)cc2)nc2c1CCNC2 was -19%.
Result for Cc1cccc(Oc2ccccc2CNC(=O)C2CCC(=O)NC2)c1 (stereo not shown) was -0.4714%.
Result for CC(C)n1ccnc1CN1CCCN(C(=O)c2cnc[nH]2)CC1 was -2.216%.
Result for CC(=O)N1CCC(c2nc3ccc(-c4cccc(F)c4)cn3n2)CC1 was 7.966%.
Result for COc1nn(C)c2c1CCCN(C(=O)c1ccc(C)c(F)c1)C2 was -41.66%.